These are yes or no findings as the source states them, for the method shown. In cells and extracts the contact can be indirect. Some results given as binding are weak or reduced against the parent protein; the word gives no strength.
Target: T1, integrin αL (human (endogenous in dHL60)) (UniProt P20701)
T1 sequence: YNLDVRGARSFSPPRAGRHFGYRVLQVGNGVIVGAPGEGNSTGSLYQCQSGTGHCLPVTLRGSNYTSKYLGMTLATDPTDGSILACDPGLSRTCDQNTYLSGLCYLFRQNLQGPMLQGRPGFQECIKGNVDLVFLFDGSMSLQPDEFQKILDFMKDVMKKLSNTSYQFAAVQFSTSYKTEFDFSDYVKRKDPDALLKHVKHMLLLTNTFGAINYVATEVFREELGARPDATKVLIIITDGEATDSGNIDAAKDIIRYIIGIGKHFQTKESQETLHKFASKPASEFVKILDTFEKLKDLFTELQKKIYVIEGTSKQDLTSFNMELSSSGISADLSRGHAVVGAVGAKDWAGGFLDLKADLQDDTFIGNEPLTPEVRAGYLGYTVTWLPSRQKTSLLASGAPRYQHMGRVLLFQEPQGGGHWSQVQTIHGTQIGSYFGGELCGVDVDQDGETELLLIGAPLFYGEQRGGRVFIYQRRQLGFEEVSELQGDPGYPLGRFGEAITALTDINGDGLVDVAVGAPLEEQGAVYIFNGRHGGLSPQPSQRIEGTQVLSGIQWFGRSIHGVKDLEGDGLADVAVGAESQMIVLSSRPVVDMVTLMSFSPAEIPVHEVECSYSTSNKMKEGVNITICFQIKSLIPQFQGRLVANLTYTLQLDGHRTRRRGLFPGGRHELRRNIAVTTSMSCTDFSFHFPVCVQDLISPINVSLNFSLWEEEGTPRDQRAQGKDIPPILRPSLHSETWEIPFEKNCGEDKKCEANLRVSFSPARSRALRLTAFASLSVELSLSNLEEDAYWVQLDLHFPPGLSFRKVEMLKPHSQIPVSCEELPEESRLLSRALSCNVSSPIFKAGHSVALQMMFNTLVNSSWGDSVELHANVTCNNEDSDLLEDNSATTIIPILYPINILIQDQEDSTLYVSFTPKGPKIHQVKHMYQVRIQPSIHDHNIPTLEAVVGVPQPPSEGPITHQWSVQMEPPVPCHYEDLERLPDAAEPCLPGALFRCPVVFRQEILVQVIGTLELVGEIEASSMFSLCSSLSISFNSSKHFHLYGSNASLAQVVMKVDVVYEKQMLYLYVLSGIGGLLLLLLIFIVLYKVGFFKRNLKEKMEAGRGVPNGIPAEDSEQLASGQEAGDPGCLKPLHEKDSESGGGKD
Experiment: proximity ligation; dHL60 cells, control or planted in CD95L-precoated chamber for 10 min at 37°C, fixed with 2% PFA, stained with anti-CD11a (EP1285Y) and anti-CD95 (APO-1-1); Duolink kit

The chains behind the UniProt entries cited, without tags or fusion partners. Residues count along the entry.
UniProt P25445, residues 26-335: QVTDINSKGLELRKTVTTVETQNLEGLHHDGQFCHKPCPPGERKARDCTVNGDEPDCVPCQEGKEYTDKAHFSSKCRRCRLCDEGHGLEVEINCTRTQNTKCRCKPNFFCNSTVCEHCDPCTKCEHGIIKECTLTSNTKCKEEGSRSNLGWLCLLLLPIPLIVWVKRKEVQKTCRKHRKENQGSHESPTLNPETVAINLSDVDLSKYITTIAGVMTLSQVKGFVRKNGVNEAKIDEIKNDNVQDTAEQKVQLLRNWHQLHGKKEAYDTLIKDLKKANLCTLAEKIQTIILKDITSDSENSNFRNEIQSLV

## CD95 (from UniProt P25445 26-335) (receptor)
  binding: binds
